Test results reported in publication PMC6177406.
No constants are given. Whether binding was seen depends on the method and setting. Binding seen in cells or lysates may run through a third protein. Some results given as binding are weak or reduced against the parent protein; the word gives no strength. For part of these data: Where a sequence is shown, tags or fusion partners need not be part of it. One block for each molecule: values may come before it.

Sequences of proteins named here, by UniProt entry; tags and fusion partners are left off.
UniProt P11802: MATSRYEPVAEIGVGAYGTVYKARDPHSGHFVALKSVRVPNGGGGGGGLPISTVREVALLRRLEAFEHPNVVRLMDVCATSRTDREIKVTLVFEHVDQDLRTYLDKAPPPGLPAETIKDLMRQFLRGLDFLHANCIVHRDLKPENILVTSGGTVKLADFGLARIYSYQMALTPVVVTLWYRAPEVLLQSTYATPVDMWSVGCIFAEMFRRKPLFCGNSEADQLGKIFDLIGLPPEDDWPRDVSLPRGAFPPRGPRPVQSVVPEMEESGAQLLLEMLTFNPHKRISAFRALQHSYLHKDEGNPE
UniProt P03372: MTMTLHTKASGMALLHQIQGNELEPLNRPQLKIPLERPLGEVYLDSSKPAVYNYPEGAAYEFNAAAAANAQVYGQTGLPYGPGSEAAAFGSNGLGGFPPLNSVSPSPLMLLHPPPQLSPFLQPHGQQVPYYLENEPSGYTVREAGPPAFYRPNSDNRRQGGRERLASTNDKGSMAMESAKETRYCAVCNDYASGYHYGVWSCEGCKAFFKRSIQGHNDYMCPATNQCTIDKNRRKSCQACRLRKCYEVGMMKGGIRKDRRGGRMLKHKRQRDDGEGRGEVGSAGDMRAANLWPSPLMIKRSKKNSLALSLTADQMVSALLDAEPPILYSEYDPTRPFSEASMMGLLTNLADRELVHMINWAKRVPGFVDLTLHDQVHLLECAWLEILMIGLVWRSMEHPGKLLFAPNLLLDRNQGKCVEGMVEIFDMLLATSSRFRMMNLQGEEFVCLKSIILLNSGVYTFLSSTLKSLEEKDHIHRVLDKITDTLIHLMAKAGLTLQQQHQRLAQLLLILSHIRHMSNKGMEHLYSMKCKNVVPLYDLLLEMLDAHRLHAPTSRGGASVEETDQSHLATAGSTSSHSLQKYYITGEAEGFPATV

Assays:
[1] = target: T1, GST-LEM4 (containing amino acids 59–938) (human) (UniProt Q86XL3); assay: pull-down; GST alone or GST-LEM4 immobilized on glutathione-agarose beads, incubated with extract of HEK293T cells transfected with GFP-ERα or GFP-tagged ERα mutants; immunoblot with anti-ERα antibody; only the target purified
T1 sequence: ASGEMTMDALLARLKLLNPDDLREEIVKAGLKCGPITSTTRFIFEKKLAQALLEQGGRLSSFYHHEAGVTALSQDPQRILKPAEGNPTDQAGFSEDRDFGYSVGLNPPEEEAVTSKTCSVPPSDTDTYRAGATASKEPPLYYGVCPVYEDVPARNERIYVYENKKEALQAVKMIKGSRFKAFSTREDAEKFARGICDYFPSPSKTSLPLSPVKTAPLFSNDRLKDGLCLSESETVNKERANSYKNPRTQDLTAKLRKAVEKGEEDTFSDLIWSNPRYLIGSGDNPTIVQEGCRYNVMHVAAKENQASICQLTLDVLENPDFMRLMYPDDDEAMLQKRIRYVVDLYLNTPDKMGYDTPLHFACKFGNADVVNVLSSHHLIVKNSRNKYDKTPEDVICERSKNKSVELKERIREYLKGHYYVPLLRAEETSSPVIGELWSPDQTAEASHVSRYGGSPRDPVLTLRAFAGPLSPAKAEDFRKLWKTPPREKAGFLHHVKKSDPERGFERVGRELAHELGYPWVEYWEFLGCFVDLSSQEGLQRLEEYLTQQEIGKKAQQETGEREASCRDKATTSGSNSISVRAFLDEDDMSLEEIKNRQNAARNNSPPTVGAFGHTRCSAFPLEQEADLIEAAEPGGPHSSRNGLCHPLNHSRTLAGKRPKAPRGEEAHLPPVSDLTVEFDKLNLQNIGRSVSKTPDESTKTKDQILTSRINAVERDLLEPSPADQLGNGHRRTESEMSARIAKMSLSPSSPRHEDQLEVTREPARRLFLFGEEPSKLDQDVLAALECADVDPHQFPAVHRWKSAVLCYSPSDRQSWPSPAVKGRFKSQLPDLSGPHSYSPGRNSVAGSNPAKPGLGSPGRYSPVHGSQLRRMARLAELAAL

FLAG-LEM4 (human) [2] = target: T2, FLAG-LEM4 (human) (UniProt Q86XL3); assay: co-IP; HEK293T cells co-transfected with a FLAG-tagged and a GFP-tagged protein; lysate precipitated with anti-FLAG affinity gel, immunoblot with anti-GFP antibody; for FLAG-ERα and GFP-Aurora-A in LEM4-depleted HEK293T-shLEM4 cells
T2 sequence: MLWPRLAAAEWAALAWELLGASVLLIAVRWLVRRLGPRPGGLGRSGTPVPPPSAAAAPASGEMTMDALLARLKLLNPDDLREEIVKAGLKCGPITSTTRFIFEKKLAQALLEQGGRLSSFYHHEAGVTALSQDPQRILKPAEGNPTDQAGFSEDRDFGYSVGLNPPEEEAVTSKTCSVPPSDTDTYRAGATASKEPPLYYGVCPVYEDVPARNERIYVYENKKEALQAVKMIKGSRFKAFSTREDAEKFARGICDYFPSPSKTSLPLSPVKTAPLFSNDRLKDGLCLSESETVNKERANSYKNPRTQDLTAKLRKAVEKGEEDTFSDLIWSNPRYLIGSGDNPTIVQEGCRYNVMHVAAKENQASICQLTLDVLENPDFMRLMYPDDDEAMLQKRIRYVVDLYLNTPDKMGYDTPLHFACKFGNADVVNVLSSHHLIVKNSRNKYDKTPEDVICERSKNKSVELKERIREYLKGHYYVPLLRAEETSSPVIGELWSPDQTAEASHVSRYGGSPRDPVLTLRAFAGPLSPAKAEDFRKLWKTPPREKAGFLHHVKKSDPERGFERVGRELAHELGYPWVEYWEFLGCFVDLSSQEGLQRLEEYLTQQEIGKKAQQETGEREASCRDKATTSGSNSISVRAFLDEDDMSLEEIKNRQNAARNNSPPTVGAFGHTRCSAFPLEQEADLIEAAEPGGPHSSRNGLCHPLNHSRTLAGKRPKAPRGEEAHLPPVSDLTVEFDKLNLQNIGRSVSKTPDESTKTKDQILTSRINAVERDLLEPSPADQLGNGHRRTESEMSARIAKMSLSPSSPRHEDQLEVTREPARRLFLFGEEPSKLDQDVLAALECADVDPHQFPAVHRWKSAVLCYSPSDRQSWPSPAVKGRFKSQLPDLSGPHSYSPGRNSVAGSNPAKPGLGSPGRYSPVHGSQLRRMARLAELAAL

[3] = target: T1, GST-LEM4 (containing amino acids 59–938) (human); assay: pull-down; GST alone or recombinant GST-LEM4 immobilized on glutathione-agarose beads, incubated with MCF7 cell extract at 4 °C for 2 h; immunoblot with CDK4 and Rb antibodies; only the target purified
FLAG-CDK4 = FLAG-CDK4 (UniProt P11802); assay: co-IP; HEK293T cells co-transfected with a FLAG-tagged and a GFP-tagged protein; lysate precipitated with anti-FLAG affinity gel, immunoblot with anti-GFP antibody; for FLAG-ERα and GFP-Aurora-A in LEM4-depleted HEK293T-shLEM4 cells
FLAG-LEM4 (human) [4] = target: T2, FLAG-LEM4 (human); assay: co-IP; cells transfected with pCMV6-FLAG-LEM4 or empty vector (HEK293T in the legend, MCF7 in the text); anti-FLAG affinity gel, immunoblot with Rb antibody for endogenous Rb
[5] = target: ERα (endogenous, BT474 cells) (human (endogenous in BT474)) (UniProt P03372); assay: co-IP; endogenous proteins, BT474 cells; immunoprecipitated with anti-ERα antibody, detected with anti-LEM4 antibody

Molecule: GFP-ERα (from UniProt P03372 1-595)
binding [1]: binds | binding (FLAG-LEM4 (human) [2]): binds

B2: GFP-LEM4 (protein, UniProt Q86XL3 1-938)
chain: MLWPRLAAAEWAALAWELLGASVLLIAVRWLVRRLGPRPGGLGRSGTPVPPPSAAAAPASGEMTMDALLARLKLLNPDDLREEIVKAGLKCGPITSTTRFIFEKKLAQALLEQGGRLSSFYHHEAGVTALSQDPQRILKPAEGNPTDQAGFSEDRDFGYSVGLNPPEEEAVTSKTCSVPPSDTDTYRAGATASKEPPLYYGVCPVYEDVPARNERIYVYENKKEALQAVKMIKGSRFKAFSTREDAEKFARGICDYFPSPSKTSLPLSPVKTAPLFSNDRLKDGLCLSESETVNKERANSYKNPRTQDLTAKLRKAVEKGEEDTFSDLIWSNPRYLIGSGDNPTIVQEGCRYNVMHVAAKENQASICQLTLDVLENPDFMRLMYPDDDEAMLQKRIRYVVDLYLNTPDKMGYDTPLHFACKFGNADVVNVLSSHHLIVKNSRNKYDKTPEDVICERSKNKSVELKERIREYLKGHYYVPLLRAEETSSPVIGELWSPDQTAEASHVSRYGGSPRDPVLTLRAFAGPLSPAKAEDFRKLWKTPPREKAGFLHHVKKSDPERGFERVGRELAHELGYPWVEYWEFLGCFVDLSSQEGLQRLEEYLTQQEIGKKAQQETGEREASCRDKATTSGSNSISVRAFLDEDDMSLEEIKNRQNAARNNSPPTVGAFGHTRCSAFPLEQEADLIEAAEPGGPHSSRNGLCHPLNHSRTLAGKRPKAPRGEEAHLPPVSDLTVEFDKLNLQNIGRSVSKTPDESTKTKDQILTSRINAVERDLLEPSPADQLGNGHRRTESEMSARIAKMSLSPSSPRHEDQLEVTREPARRLFLFGEEPSKLDQDVLAALECADVDPHQFPAVHRWKSAVLCYSPSDRQSWPSPAVKGRFKSQLPDLSGPHSYSPGRNSVAGSNPAKPGLGSPGRYSPVHGSQLRRMARLAELAAL
binding (FLAG-CDK4): binds

B4: LEM4 (endogenous, BT474 cells) (protein, UniProt Q86XL3 1-938)
chain: MLWPRLAAAEWAALAWELLGASVLLIAVRWLVRRLGPRPGGLGRSGTPVPPPSAAAAPASGEMTMDALLARLKLLNPDDLREEIVKAGLKCGPITSTTRFIFEKKLAQALLEQGGRLSSFYHHEAGVTALSQDPQRILKPAEGNPTDQAGFSEDRDFGYSVGLNPPEEEAVTSKTCSVPPSDTDTYRAGATASKEPPLYYGVCPVYEDVPARNERIYVYENKKEALQAVKMIKGSRFKAFSTREDAEKFARGICDYFPSPSKTSLPLSPVKTAPLFSNDRLKDGLCLSESETVNKERANSYKNPRTQDLTAKLRKAVEKGEEDTFSDLIWSNPRYLIGSGDNPTIVQEGCRYNVMHVAAKENQASICQLTLDVLENPDFMRLMYPDDDEAMLQKRIRYVVDLYLNTPDKMGYDTPLHFACKFGNADVVNVLSSHHLIVKNSRNKYDKTPEDVICERSKNKSVELKERIREYLKGHYYVPLLRAEETSSPVIGELWSPDQTAEASHVSRYGGSPRDPVLTLRAFAGPLSPAKAEDFRKLWKTPPREKAGFLHHVKKSDPERGFERVGRELAHELGYPWVEYWEFLGCFVDLSSQEGLQRLEEYLTQQEIGKKAQQETGEREASCRDKATTSGSNSISVRAFLDEDDMSLEEIKNRQNAARNNSPPTVGAFGHTRCSAFPLEQEADLIEAAEPGGPHSSRNGLCHPLNHSRTLAGKRPKAPRGEEAHLPPVSDLTVEFDKLNLQNIGRSVSKTPDESTKTKDQILTSRINAVERDLLEPSPADQLGNGHRRTESEMSARIAKMSLSPSSPRHEDQLEVTREPARRLFLFGEEPSKLDQDVLAALECADVDPHQFPAVHRWKSAVLCYSPSDRQSWPSPAVKGRFKSQLPDLSGPHSYSPGRNSVAGSNPAKPGLGSPGRYSPVHGSQLRRMARLAELAAL
binding [5]: binds

Continued, values first:

binding [3]: binds
B1: Rb (endogenous, MCF7 cell extract) (protein, UniProt P06400 1-928)
chain: MPPKTPRKTAATAAAAAAEPPAPPPPPPPEEDPEQDSGPEDLPLVRLEFEETEEPDFTALCQKLKIPDHVRERAWLTWEKVSSVDGVLGGYIQKKKELWGICIFIAAVDLDEMSFTFTELQKNIEISVHKFFNLLKEIDTSTKVDNAMSRLLKKYDVLFALFSKLERTCELIYLTQPSSSISTEINSALVLKVSWITFLLAKGEVLQMEDDLVISFQLMLCVLDYFIKLSPPMLLKEPYKTAVIPINGSPRTPRRGQNRSARIAKQLENDTRIIEVLCKEHECNIDEVKNVYFKNFIPFMNSLGLVTSNGLPEVENLSKRYEEIYLKNKDLDARLFLDHDKTLQTDSIDSFETQRTPRKSNLDEEVNVIPPHTPVRTVMNTIQQLMMILNSASDQPSENLISYFNNCTVNPKESILKRVKDIGYIFKEKFAKAVGQGCVEIGSQRYKLGVRLYYRVMESMLKSEEERLSIQNFSKLLNDNIFHMSLLACALEVVMATYSRSTSQNLDSGTDLSFPWILNVLNLKAFDFYKVIESFIKAEGNLTREMIKHLERCEHRIMESLAWLSDSPLFDLIKQSKDREGPTDHLESACPLNLPLQNNHTAADMYLSPVRSPKKKGSTTRVNSTANAETQATSAFQTQKPLKSTSLSLFYKKVYRLAYLRLNTLCERLLSEHPELEHIIWTLFQHTLQNEYELMRDRHLDQIMMCSMYGICKVKNIDLKFKIIVTAYKDLPHAVQETFKRVLIKEEEYDSIIVFYNSVFMQRLKTNILQYASTRPPTLSPIPHIPRSPYKFPSSPLRIPGGNIYISPLKSPYKISEGLPTPTKMTPRSRILVSIGESFGTSEKFQKINQMVCNSDRVLKRSAEGSNPPKPLKKLRFDIEGSDEADGSKHLPGESKFQQKLAEMTSTRTRMQKQKMNDSMDTSNKEEK

binding (FLAG-LEM4 (human) [4]): binds
B3: Rb (endogenous, in the cells transfected with FLAG-LEM4) (protein, UniProt P06400 1-928)
chain: MPPKTPRKTAATAAAAAAEPPAPPPPPPPEEDPEQDSGPEDLPLVRLEFEETEEPDFTALCQKLKIPDHVRERAWLTWEKVSSVDGVLGGYIQKKKELWGICIFIAAVDLDEMSFTFTELQKNIEISVHKFFNLLKEIDTSTKVDNAMSRLLKKYDVLFALFSKLERTCELIYLTQPSSSISTEINSALVLKVSWITFLLAKGEVLQMEDDLVISFQLMLCVLDYFIKLSPPMLLKEPYKTAVIPINGSPRTPRRGQNRSARIAKQLENDTRIIEVLCKEHECNIDEVKNVYFKNFIPFMNSLGLVTSNGLPEVENLSKRYEEIYLKNKDLDARLFLDHDKTLQTDSIDSFETQRTPRKSNLDEEVNVIPPHTPVRTVMNTIQQLMMILNSASDQPSENLISYFNNCTVNPKESILKRVKDIGYIFKEKFAKAVGQGCVEIGSQRYKLGVRLYYRVMESMLKSEEERLSIQNFSKLLNDNIFHMSLLACALEVVMATYSRSTSQNLDSGTDLSFPWILNVLNLKAFDFYKVIESFIKAEGNLTREMIKHLERCEHRIMESLAWLSDSPLFDLIKQSKDREGPTDHLESACPLNLPLQNNHTAADMYLSPVRSPKKKGSTTRVNSTANAETQATSAFQTQKPLKSTSLSLFYKKVYRLAYLRLNTLCERLLSEHPELEHIIWTLFQHTLQNEYELMRDRHLDQIMMCSMYGICKVKNIDLKFKIIVTAYKDLPHAVQETFKRVLIKEEEYDSIIVFYNSVFMQRLKTNILQYASTRPPTLSPIPHIPRSPYKFPSSPLRIPGGNIYISPLKSPYKISEGLPTPTKMTPRSRILVSIGESFGTSEKFQKINQMVCNSDRVLKRSAEGSNPPKPLKKLRFDIEGSDEADGSKHLPGESKFQQKLAEMTSTRTRMQKQKMNDSMDTSNKEEK
